In patent publication US20260215432A1, “ANTIMICROBIAL CONJUGATED OLIGOELECTROLYTES AND METHODS THEREOF” (National University of Singapore, priority 2023, published 2026):

Columns and labels:
E. facium (ATCC 19434) = assay: MIC, broth microdilution in CA-MHB; type: cell-based
Description: (§1) Antimicrobial activity was screened against a range of pathogens made up of clinically relevant ESKAPE pathogens by determination of the minimum inhibitory concentration (MIC) in cation-adjusted Mueller-Hinton broth (CA-MHB).
(§2) Minimum inhibitory concentrations of COEs were determined through a broth microdilution method in accordance with the Clinical and Laboratory Standards Institute (CLSI) guidelines M07-A10. A single bacterial colony was isolated from an overnight culture and grown to mid-log phase (OD600~0.8). Compounds were prepared as a stock solution in DMSO and diluted in a sterile flat-bottom 96-well plate in CA-MHB. Subsequent concentrations were prepared by two-fold dilution of the initial solution. An equivalent volume of bacteria was added to the compound to a final concentration of 5×10^5 cfu/mL. Plates were incubated at 37° C. for 16-18 hours, and read at OD600 using a microplate reader (TECAN Spark®). […] MIC values were determined for each compound in triplicate.

S. aureus (ATCC 29213) = assay: MIC, broth microdilution in CA-MHB; type: cell-based
Description: as §1, §2

A. baumanii (ATCC 17978) = assay: MIC, broth microdilution in CA-MHB; type: cell-based
Description: as §1, §2

[1] = tested on: Methicillin-resistant S. aureus (ATCC BAA1717); assay: MIC, broth microdilution in CA-MHB; type: cell-based
Description: as §1, §2

[2] = tested on: K. pneumoniae (carbapenem-resistant Enterobacterales) (ATCC BAA1705); assay: MIC, broth microdilution in CA-MHB; type: cell-based
Description: as §1, §2

[3] = tested on: E. faecalis OG1RF (ATCC 47077); assay: MIC, broth microdilution in CA-MHB; type: cell-based
Description: as §1, §2

[4] = tested on: E. coli. K12 (ATCC 10798); assay: MIC, broth microdilution in CA-MHB; type: cell-based
Description: as §1, §2

[5] = tested on: P. aeruginosa (ATCC47085); assay: MIC, broth microdilution in CA-MHB; type: cell-based
Description: as §1, §2

[6] = tested on: M. abscesses (ATCC 19977); assay: MIC against mycobacterium in Middlebrook 7H9 broth; type: cell-based, M. abscessus
Description: We also examined non-tuberculous mycobacteria (NTM). These are opportunistic pathogens that are rising in clinical significance due to their increasing prevalence and treatment difficulty. The membrane of Mycobacterium is inherently a greater antibiotic permeability barrier due to its high lipid content relative to other pathogens and long-tailed mycolic acids that contributed to its high lipophilic character. The antimicrobial activity of the TPP analogues were also evaluated against Mycobacterium in Middlebrook 7H9 broth.

[7] = tested on: A549 (lung epithelial cells); assay: Cytotoxicity against mammalian cell line; type: cell-based
Description: The cytotoxicity of the TPP COEs was also tested against a mammalian cell line (A549).

With C(=C\c1ccc(OCCCCCCCC[P+](c2ccccc2)(c2ccccc2)c2ccccc2)cc1)/c1ccc(OCCCCCCCC[P+](c2ccccc2)(c2ccccc2)c2ccccc2)cc1.[I-].[I-] [Compound D8P] the “MIC FAC” value (E. facium (ATCC 19434)) was 2 µg/mL, the “MIC SA” value (S. aureus (ATCC 29213)) was >4 µg/mL and the “MIC AB” value (A. baumanii (ATCC 17978)) was >4 µg/mL. The “MIC MRSA” value [1] was >4 µg/mL, the “MIC KP” value [2] was >4 µg/mL and the “MIC FAE” value [3] was 2 µg/mL. For the same compound, the “MIC EC” value [4] was >4 µg/mL, the “MIC PA” value [5] was >4 µg/mL and the “MIC M. abscesses” value [6] was 128 µg/mL. For the same compound, the IC50 [7] was 7 µg/mL.
